# Assay results reported in patent publication US7799758B2 (priority 2006, dated 2010).
# Assay: general procedure: Fmoc solid-phase peptide synthesis; Tentagel-S-RAM; DIC/HOBt/DIPEA
# Details: whole synthesis, scale 100 mg resin
substance,measurement,value
GHRPLDKKREEAPSLRPAPPPISGGGYR-NH2,crude mass,75 mg
same,isolated mass,48 mg

# No end group written: not given here.
